Results on four substances are retold here after PMC12533200.

The chains behind the UniProt entries cited, without tags or fusion partners. Where a name states a change or a piece, a line headed by the entry shows the natural chain unless it says otherwise.
UniProt Q00987: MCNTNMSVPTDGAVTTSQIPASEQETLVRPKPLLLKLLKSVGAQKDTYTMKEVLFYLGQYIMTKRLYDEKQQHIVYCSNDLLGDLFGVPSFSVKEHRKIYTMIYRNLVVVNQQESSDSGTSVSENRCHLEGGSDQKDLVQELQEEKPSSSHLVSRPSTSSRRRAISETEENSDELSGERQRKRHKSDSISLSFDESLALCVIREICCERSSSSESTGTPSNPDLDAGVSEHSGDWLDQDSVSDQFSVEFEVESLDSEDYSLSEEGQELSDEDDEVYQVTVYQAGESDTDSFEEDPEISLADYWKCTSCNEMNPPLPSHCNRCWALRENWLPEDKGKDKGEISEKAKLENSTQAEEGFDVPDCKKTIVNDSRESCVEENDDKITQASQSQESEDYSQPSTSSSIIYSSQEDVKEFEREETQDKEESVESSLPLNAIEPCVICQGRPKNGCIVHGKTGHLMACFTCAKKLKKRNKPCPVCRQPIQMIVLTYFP
UniProt A5YKK6: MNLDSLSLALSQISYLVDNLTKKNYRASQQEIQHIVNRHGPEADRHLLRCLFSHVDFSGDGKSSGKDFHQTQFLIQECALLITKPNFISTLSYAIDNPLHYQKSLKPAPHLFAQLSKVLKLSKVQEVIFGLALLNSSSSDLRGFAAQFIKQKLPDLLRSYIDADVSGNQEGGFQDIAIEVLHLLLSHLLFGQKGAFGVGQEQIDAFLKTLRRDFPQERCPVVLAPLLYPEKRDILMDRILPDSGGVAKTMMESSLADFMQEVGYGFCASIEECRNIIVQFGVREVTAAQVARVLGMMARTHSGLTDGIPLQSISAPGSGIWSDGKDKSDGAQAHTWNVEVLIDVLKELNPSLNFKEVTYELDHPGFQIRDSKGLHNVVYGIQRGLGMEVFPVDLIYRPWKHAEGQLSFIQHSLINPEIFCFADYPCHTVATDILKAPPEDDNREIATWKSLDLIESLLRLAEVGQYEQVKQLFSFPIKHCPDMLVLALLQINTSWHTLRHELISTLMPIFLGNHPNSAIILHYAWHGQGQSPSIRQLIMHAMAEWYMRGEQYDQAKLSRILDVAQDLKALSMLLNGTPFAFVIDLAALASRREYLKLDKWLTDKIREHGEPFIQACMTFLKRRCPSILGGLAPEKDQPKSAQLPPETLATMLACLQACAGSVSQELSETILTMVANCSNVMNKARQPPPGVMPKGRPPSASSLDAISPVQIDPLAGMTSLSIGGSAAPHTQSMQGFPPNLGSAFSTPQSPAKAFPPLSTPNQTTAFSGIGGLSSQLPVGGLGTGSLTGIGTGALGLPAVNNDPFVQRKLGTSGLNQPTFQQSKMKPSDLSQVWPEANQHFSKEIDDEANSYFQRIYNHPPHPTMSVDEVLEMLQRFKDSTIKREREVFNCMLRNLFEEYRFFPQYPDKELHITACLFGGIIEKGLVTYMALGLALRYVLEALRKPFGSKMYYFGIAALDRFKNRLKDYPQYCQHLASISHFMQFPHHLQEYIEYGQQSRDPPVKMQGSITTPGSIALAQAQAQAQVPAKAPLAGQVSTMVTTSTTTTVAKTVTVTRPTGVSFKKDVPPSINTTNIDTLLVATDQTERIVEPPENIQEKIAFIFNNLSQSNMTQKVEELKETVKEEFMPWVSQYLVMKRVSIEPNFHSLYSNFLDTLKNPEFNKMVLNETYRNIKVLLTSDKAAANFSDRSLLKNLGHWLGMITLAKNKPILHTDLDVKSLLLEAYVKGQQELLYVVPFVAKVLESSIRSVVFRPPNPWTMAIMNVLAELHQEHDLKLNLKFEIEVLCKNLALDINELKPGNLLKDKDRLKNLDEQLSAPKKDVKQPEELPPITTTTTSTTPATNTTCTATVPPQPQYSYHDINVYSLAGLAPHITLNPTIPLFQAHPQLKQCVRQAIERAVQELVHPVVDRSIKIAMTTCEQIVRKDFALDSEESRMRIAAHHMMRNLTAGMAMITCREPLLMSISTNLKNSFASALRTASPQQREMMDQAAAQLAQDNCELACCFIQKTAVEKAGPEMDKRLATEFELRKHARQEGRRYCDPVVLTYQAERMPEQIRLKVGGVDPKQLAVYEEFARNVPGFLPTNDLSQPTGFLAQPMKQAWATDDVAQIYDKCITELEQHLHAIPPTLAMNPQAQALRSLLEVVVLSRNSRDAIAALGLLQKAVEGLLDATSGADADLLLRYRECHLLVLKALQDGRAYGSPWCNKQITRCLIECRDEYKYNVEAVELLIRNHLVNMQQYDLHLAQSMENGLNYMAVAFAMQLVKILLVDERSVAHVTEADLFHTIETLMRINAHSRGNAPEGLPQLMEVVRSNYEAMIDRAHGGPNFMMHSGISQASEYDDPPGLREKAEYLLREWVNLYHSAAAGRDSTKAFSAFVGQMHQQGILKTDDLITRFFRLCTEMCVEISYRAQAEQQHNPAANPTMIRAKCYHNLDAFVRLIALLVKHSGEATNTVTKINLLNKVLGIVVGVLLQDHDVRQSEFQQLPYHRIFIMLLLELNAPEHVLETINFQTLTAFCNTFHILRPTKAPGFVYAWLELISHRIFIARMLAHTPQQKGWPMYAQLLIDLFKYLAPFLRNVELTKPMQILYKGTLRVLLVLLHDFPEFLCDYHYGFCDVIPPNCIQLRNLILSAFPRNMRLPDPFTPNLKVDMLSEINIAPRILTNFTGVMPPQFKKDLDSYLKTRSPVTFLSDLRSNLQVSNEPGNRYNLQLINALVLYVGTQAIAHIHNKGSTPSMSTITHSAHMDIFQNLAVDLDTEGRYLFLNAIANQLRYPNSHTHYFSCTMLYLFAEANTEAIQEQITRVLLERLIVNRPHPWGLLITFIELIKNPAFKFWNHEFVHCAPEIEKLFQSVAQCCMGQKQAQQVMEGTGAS

No constants are given. Whether binding was seen depends on the method and setting. In cells and extracts the contact can be indirect. Some entries that bind do so weakly or less than the wild type. For some of these results: Tags and fused reporters may be left off the sequences shown.

The target in one test is T1, Flag‐LLGL2 (UniProt Q6P1M3).
T1 sequence: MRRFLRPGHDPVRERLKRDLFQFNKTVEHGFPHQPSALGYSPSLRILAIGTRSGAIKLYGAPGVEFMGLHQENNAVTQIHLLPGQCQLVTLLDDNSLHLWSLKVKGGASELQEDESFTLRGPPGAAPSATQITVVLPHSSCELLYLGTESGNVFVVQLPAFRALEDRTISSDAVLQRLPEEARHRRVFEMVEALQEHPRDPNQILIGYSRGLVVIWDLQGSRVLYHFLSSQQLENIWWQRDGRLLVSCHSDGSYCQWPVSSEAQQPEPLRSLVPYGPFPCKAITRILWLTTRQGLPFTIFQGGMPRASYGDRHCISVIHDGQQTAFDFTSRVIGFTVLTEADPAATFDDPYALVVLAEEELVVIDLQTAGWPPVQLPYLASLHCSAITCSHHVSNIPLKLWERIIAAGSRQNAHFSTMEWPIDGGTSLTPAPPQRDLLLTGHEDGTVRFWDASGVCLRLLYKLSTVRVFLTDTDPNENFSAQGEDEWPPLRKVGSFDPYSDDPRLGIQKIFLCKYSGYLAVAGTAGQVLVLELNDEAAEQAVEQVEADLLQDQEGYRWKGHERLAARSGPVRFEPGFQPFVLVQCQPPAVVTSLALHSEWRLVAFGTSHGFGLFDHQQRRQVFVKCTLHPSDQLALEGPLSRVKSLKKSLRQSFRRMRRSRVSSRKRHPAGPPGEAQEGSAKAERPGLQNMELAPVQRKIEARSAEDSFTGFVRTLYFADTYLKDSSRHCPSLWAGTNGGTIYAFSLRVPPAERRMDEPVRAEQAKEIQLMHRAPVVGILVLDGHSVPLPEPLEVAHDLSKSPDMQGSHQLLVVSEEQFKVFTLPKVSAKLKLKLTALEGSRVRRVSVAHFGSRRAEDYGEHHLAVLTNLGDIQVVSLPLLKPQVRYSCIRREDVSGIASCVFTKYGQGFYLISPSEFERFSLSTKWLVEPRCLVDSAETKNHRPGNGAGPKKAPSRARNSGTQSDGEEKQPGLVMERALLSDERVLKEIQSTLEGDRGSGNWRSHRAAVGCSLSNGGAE
Description: co-IP; exogenous, tagged proteins in transfected HEK293T or SW620 cells; anti-Flag or anti-Myc, Protein A/G magnetic beads, 4 °C overnight, six washes with PBST, western blot. Background: A western blot detects proteins with antibodies after separation by electrophoresis.

For test [1], the target named is T2, Lethal(2) giant larvae protein homolog 2 (LLGL2), endogenous (human (endogenous in SW620 and RKO)) (UniProt Q6P1M3).
T2 sequence: T1 sequence
Description: co-IP; endogenous proteins in SW620 or RKO cells; lysed in IP buffer (50 mM Tris-HCl pH 8.0, 150 mM NaCl, 10 mM KCl, 0.5% NP-40, 10% glycerol, 1 mM EDTA, protease inhibitors); anti-LLGL2 or anti-MDM2 versus IgG control, Protein A/G magnetic beads, 4 °C overnight, six washes with PBST, western blot.

Turning to “Myc‐C464A (enzymatic activity mutant C464A of MDM2) (from UniProt Q00987 1-491)”, the binding entry with Flag‐LLGL2 is reported as “binds”.

As for “MDM2, endogenous (from UniProt Q00987 1-491)”, the binding result in test [1] is on record as “binds”.

Turning to Myc‐MDM2 (from UniProt Q00987 1-491), the binding result with Flag‐LLGL2 is “binds”.

For the substance “CCR4‐NOT transcription complex subunit 1 (CNOT1), endogenous (from UniProt A5YKK6 1-2376)”, the binding entry in test [1] is reported as “binds”.
